# Experimental data: PubChem BioAssay AID1224826 (NIAID, 2016)
# Aim: 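Regulators of Tlr4 signalling leading to Tnf-alpha expression in macrophages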 (primary screen)
# Cell system: RAW264.7 G9 macrophages from mouse bearing reporters for p65 (GFP) and the Tnf promoter (mCherry)
# Knock-down reagent: siRNA pool against mouse genes, 100 nM
# Duration: 16 h of LPS stimulation, after 2 days of siRNA transfection
# Challenge: bacterial lipopolysaccharide (Salmonella minnesota R595), 10 ng/ml
# Detection: 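Imaged Tnf reporter mCherry in nuclei, minus background, normalised per plate to the median and expressed as robust z-scores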
# Reading the numbers: Tnf reporter robust z-score: higher = stronger Tnf promoter reporter signal after LPS
# Call rule: 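Called active when robust z-score is at most -1.3, matching the median of the Tlr4 knock-down control, or over 3; control wells and wells with under 50 cells never active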
# Meaning of the calls: active = Tnf reporter clearly lowered or raised; inactive = no clear change in Tnf reporter
# In all, the deposit lists about 17,000 reagents; shown is a part drawn at random. About 1,110 of all reagents (6.6%) count as active. 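Active means lowered or raised reporter signal; replicate intensities are raw and not normalised per plate.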 Reagents against one gene are numbered here. Not all columns of the deposit are shown.
The opening 7 entries, ahead of the listing:
target gene,pool no.,Tnf reporter robust z-score,fewer than 50 cells in well,outcome
Dio2 (GeneID 13371),1,-0.83,enough cells in well,inactive
Tg (GeneID 21819),1,-0.96,enough cells in well,inactive
Dffa (GeneID 13347),1,3,enough cells in well,inactive
Hsf4 (GeneID 26386),1,-0.33,enough cells in well,inactive
Defb41 (GeneID 77673),1,2.58,enough cells in well,inactive
Snu13 (GeneID 20826),1,,fewer than 50 cells per well; well left out of calls,inactive
Or1e16 (GeneID 258923),1,2.7,enough cells in well,inactive

The listing, repeating the preview:
target gene,pool no.,Tnf reporter robust z-score,fewer than 50 cells in well,outcome
Dio2 (GeneID 13371),1,-0.83,enough cells in well,inactive
Tg (GeneID 21819),1,-0.96,enough cells in well,inactive
Dffa (GeneID 13347),1,3,enough cells in well,inactive
Hsf4 (GeneID 26386),1,-0.33,enough cells in well,inactive
Defb41 (GeneID 77673),1,2.58,enough cells in well,inactive
Snu13 (GeneID 20826),1,,fewer than 50 cells per well; well left out of calls,inactive
Or1e16 (GeneID 258923),1,2.7,enough cells in well,inactive
Dusp22 (GeneID 105352),1,-0.68,enough cells in well,inactive
Gpr87 (GeneID 84111),1,0.23,enough cells in well,inactive
Cbx5 (GeneID 12419),1,0.58,enough cells in well,inactive
Slc18a1 (GeneID 110877),1,1.79,enough cells in well,inactive
Rnf144b (GeneID 218215),1,1.3,enough cells in well,inactive
Klra4 (GeneID 16635),1,-0.7,enough cells in well,inactive
Fbxl12 (GeneID 30843),1,-1.15,enough cells in well,inactive
Pla2g6 (GeneID 53357),1,0.3,enough cells in well,inactive
Eif6 (GeneID 16418),1,6.33,enough cells in well,active
Cyp3a25 (GeneID 56388),1,1.02,enough cells in well,inactive
Tppp3 (GeneID 67971),1,,fewer than 50 cells per well; well left out of calls,inactive
A430093F15Rik (GeneID 403202),1,-1.1,enough cells in well,inactive
Or6c205 (GeneID 258538),1,0.54,enough cells in well,inactive
Or6c205 (GeneID 258538),2,1.56,enough cells in well,inactive
Zp3r (GeneID 22789),1,-1.51,enough cells in well,active
Crem (GeneID 12916),1,0.16,enough cells in well,inactive
Lce1h (GeneID 67718),1,1.63,enough cells in well,inactive
Cryba1 (GeneID 12957),1,-0.87,enough cells in well,inactive
Mchr1 (GeneID 207911),1,-0.51,enough cells in well,inactive
Rptor (GeneID 74370),1,-1.21,enough cells in well,inactive
Il7r (GeneID 16197),1,-0.22,enough cells in well,inactive
B230354K17Rik (GeneID 105246278),1,0.87,enough cells in well,inactive
Or2b6 (GeneID 218066),1,0.19,enough cells in well,inactive
Crhr1 (GeneID 12921),1,0.5,enough cells in well,inactive
Grin2c (GeneID 14813),1,0.6,enough cells in well,inactive
Snrpc (GeneID 20630),1,-0.96,enough cells in well,inactive
Trip10 (GeneID 106628),1,1.9,enough cells in well,inactive
H2-M10.2 (GeneID 333715),1,0.43,enough cells in well,inactive
Gpat3 (GeneID 231510),1,1.54,enough cells in well,inactive
Ptafr (GeneID 19204),1,-0.01,enough cells in well,inactive
Ppif (GeneID 105675),1,-0.73,enough cells in well,inactive
Trav7d-6 (GeneID 320734),1,0.77,enough cells in well,inactive
Rccd1 (GeneID 269955),1,-0.11,enough cells in well,inactive
Snap23 (GeneID 20619),1,-0.2,enough cells in well,inactive
Rad21 (GeneID 19357),1,-0.46,enough cells in well,inactive
F830004M19Rik (GeneID 320224),1,-0.03,enough cells in well,inactive
Anapc13 (GeneID 69010),1,-0.72,enough cells in well,inactive
Cbr3 (GeneID 109857),1,0.51,enough cells in well,inactive
Adora3 (GeneID 11542),1,-0.56,enough cells in well,inactive
Adora3 (GeneID 11542),2,,fewer than 50 cells per well; well left out of calls,inactive
Tmem260 (GeneID 218989),1,0.42,enough cells in well,inactive
St8sia6 (GeneID 241230),1,2.17,enough cells in well,inactive
Ubac1 (GeneID 98766),1,,fewer than 50 cells per well; well left out of calls,inactive
Vmn1r25 (GeneID 113865),1,0.78,enough cells in well,inactive
Zfand1 (GeneID 66361),1,,fewer than 50 cells per well; well left out of calls,inactive
Dlc1 (GeneID 50768),1,-1.47,enough cells in well,active
Dlc1 (GeneID 50768),2,-0.92,enough cells in well,inactive
Trim42 (GeneID 78911),1,1.75,enough cells in well,inactive
Coq8a (GeneID 67426),1,0.6,enough cells in well,inactive
Nsd2 (GeneID 107823),1,-0.35,enough cells in well,inactive
Tescl (GeneID 69301),1,,fewer than 50 cells per well; well left out of calls,inactive
Stk33 (GeneID 117229),1,0.19,enough cells in well,inactive
Dnm3 (GeneID 103967),1,0.07,enough cells in well,inactive
Myo5b (GeneID 17919),1,-1.5,enough cells in well,active
Syt5 (GeneID 53420),1,-1.16,enough cells in well,inactive
Gsdme (GeneID 54722),1,-0.4,enough cells in well,inactive
Gtf2h2 (GeneID 23894),1,0.64,enough cells in well,inactive
Lrrc8a (GeneID 241296),1,-1.35,enough cells in well,active
Tmem47 (GeneID 192216),1,-0.2,enough cells in well,inactive
Ddx50 (GeneID 94213),1,2.38,enough cells in well,inactive
Or1j12 (GeneID 258953),1,-0.45,enough cells in well,inactive
Dad1 (GeneID 13135),1,-0.75,enough cells in well,inactive
4933430I17Rik (GeneID 214106),1,-0.77,enough cells in well,inactive
Naalad2 (GeneID 72560),1,-0.66,enough cells in well,inactive
Ecel1 (GeneID 13599),1,0.37,enough cells in well,inactive
Dtl (GeneID 76843),1,-0.09,enough cells in well,inactive
Unc13b (GeneID 22249),1,0.2,enough cells in well,inactive
Klk1b4 (GeneID 18048),1,-0.9,enough cells in well,inactive
